Test results from the supplement of paper PMC12889115.
The list shows a part of the results. Values are raw readings; no control value is given beside them.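 First-pass screen: polymyxin B was added at a level that permeabilizes the Salmonella outer membrane while sparing the inner membrane. DMSO wells, with and without polymyxin B, defined maximum growth. Because plates differed from one another, each plate's data were ranked separately and the compounds with the lowest OD600 were carried forward as hits.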

Tested on: Salmonella enterica serovar Typhimurium SL1344
Test: bacterial growth OD600 after 18 h with compound and polymyxin B; higher = more bacterial growth (less inhibition)
Settings: 50 µM, Mueller-Hinton broth

| Compound | bacterial growth OD600 (polymyxin B 0.75 µg/mL) | bacterial growth OD600 (polymyxin B 1 µg/mL) |
| --- | --- | --- |
| COc1cccc2c1OCC(NCc1ccc(C)cc1)C2 (centres undefined) | 0.769 | – |
| Cc1nc(N(C)C2CCCCC2)ncc1C(C)NCc1cnc(C)n1C (centres undefined) | 0.774 | – |
| COc1cccc2c1OCCCN(C(=O)c1ccc(-n3cc(NC(=O)c4cccnc4)cn3)cc1)C2 | 0.797 | – |
| COc1ccccc1C1CN(CC(=O)NC(CCn2ccnc2)c2ccccc2)Cc2ccccc2O1 (centres undefined) | 0.004 | – |
| CCOC(=O)C1(Cc2ccccc2F)CCCN(C(=O)c2cnn(CC)c2)C1 (centres undefined) | – | 0.825 |
| CCOC(=O)C1(Cc2ccc(OC)cc2)CCN(C(=O)c2ccccc2OC)CC1 | – | 0.615 |
| O=C(c1cc[n+]([O-])cc1)N1CCCC(CCc2cccc(F)c2)C1 (centres undefined) | 0.768 | – |
| CC1CN(CC(=O)N(CCO)Cc2ccccc2)Cc2cc(Cl)ccc2O1 (centres undefined) | 0.52 | – |
| OCC1(CCc2ccccc2)CCCN(Cc2ccc(O)c(Cl)c2)C1 (centres undefined) | 0.748 | – |
| CC(C)CN(C)c1ccc(C(=O)NCc2noc(C(C)C)n2)cn1 | – | 1.03 |
| COC(=O)CC(NC1CCN(c2ccc(C(=O)NCCN3CCOCC3)cc2)CC1)C(=O)OC (centres undefined) | 0.746 | – |
| CCCN(CC1CC1)C(=O)CCC1(Cc2ccc3ccccc3c2)CCC(=O)N1 (centres undefined) | 0.75 | – |
| CCCN(CC1CCCO1)C(=O)C1CCCN(c2nc(C)c3ccc(S(C)(=O)=O)cc3n2)C1 (centres undefined) | 0.009 | – |
| O=C(c1ccc(N2CCC(NCC3CCCN(c4ncccn4)C3)CC2)cc1)N1CCOCC1 (centres undefined) | 0.865 | – |
| CCOC(=O)C1(Cc2ccccc2Cl)CCN(C(=O)c2cccs2)CC1 | – | 0.03 |
| CCN(Cc1nccn1C)C(=O)c1ccc(NCc2cccc(C)c2)nc1 | – | 0.859 |
| COc1cccc(CC(C2CCN(C(=O)c3cccc(C)c3C)CC2)N(C)C(=O)c2ccn(C)n2)c1 (centres undefined) | 0.837 | – |
| COCCN(CC1CCN(Cc2ccccc2F)CC1)C(=O)c1sc(C)nc1C | – | 0.964 |
| Cc1cc(C)n(CCCNC(=O)C2CCCN(C3CCN(C(C)C)CC3)C2)n1 (centres undefined) | 0.904 | – |
| Cc1cc(CN2CCC(n3nccc3NC(=O)C(C)(C)C)CC2)cc(C)c1O | – | 1.24 |
| Cc1ccc(-c2n[nH]cc2CNCc2cc(C(F)(F)F)ccc2F)cc1C | – | 0.017 |
| C=CC[C@H]1CC(C)=C[C@H](CC=C)N1C(=O)CCC1(Cc2ccc(SC)cc2)CCC(=O)N1 (some centres undefined) | 0.039 | – |
| CCN(CC1CCCN(CCc2cccc(F)c2)C1)C(=O)c1ccccc1 (centres undefined) | – | 0.994 |
| CCN1CC(CN(C)Cc2cn(-c3ccccc3C)nc2-c2ccc(OC)c(F)c2)CC1=O (centres undefined) | – | 0.728 |
| Cc1nc(CN2CCCC(CO)(Cc3ccc(F)cc3)C2)c[nH]1 (centres undefined) | 0.991 | – |
| COCCN1C(=O)CC(CC(=O)N2CCC(C(O)Cc3ccccc3)CC2)(c2ccccc2C)C1=O (centres undefined) | 0.843 | – |
| O=C(c1ccccc1OC1CCN(Cc2ncc[nH]2)CC1)N1CCCCC1 | – | 1.01 |
| O=C(CCC1CCCN(C(=O)CCc2ccncc2)C1)NCc1ccccc1Cl (centres undefined) | – | 0.978 |
| COCc1ccc(C(=O)Nc2ccc(-c3nc(CNC(=O)C(C)Oc4ccccc4)c(C)o3)cc2)o1 (centres undefined) | 0.355 | – |

Quoted from the listing.
Entry of COCCN1C(=O)CC(CC(=O)N2CCC(C(O)Cc3ccccc3)CC2)(c2ccccc2C)C1=O (centres undefined) under bacterial growth OD600 (polymyxin B 0.75 µg/mL): 0.843
Entry of Cc1nc(N(C)C2CCCCC2)ncc1C(C)NCc1cnc(C)n1C (centres undefined) under bacterial growth OD600 (polymyxin B 0.75 µg/mL): 0.774
